Results published in patent US20260092121A1.
Results are given in words; binding and its absence hold for the method and conditions named. Some binding calls cover weakened binding; strength is not graded here.

By UniProt entry, the sequences of proteins in these tests, tags left out. Where a name states a change or a piece, a line headed by the entry shows the natural chain unless it says otherwise. Residues count along the entry.
UniProt Q16620: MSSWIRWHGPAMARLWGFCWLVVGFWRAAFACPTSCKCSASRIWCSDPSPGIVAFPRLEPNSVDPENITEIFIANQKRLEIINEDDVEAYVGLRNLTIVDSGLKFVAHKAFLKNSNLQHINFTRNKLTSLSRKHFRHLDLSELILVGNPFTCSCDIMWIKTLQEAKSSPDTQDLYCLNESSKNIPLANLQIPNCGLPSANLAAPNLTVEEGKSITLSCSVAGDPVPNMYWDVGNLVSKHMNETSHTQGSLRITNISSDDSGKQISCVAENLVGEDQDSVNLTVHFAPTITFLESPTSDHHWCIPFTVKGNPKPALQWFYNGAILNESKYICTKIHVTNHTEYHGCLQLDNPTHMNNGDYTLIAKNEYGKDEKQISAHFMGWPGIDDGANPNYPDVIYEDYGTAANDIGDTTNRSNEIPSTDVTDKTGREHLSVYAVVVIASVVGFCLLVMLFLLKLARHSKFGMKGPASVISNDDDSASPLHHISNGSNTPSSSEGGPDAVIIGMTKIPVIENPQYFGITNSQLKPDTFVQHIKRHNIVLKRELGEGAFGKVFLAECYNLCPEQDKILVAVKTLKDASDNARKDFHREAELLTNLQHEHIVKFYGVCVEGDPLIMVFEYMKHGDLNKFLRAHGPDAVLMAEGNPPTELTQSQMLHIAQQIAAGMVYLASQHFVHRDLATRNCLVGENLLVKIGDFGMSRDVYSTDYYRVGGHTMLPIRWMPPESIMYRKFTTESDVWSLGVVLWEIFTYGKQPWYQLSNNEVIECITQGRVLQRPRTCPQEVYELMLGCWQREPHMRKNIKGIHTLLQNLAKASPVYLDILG
UniProt P15209: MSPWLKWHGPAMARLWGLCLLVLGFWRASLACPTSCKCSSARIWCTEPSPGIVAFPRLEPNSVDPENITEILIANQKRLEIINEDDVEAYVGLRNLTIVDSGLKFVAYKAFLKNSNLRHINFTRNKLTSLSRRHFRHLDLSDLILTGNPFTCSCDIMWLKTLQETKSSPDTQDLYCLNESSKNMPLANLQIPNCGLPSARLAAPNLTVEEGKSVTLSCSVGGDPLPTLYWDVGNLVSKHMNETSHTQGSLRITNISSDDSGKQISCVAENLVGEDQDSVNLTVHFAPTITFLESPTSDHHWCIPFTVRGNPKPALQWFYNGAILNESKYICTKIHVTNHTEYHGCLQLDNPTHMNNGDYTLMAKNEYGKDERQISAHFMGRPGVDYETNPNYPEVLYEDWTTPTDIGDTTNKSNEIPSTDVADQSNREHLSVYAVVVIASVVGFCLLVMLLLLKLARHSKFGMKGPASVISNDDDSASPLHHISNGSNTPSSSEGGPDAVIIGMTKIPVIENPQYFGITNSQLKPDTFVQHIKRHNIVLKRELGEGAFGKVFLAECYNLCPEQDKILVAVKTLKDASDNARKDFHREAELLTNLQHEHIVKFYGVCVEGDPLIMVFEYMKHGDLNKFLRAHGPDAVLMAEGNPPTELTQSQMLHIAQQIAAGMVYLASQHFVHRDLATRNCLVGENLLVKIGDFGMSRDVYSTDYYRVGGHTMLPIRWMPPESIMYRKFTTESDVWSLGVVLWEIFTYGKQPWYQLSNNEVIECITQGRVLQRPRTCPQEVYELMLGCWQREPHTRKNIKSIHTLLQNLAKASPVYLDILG
mouse TrkB on CHO-K1 cells: residues 32-821 of P15209
mTrkB, plate-immobilized (ELISA of the chicken-derived clones): residues 32-429 of P15209

Key:
[1] = target: hTrkB, plate-immobilized (ELISA of the chicken-derived clones) (human) (UniProt Q16620); assay: ELISA
[2] = target: mTrkB, plate-immobilized (ELISA of the chicken-derived clones) (mouse) (UniProt P15209); assay: ELISA
[3] = target: human TrkB on CHO-K1 cells (human) (UniProt Q16620); assay: flow cytometry
[4] = target: mouse TrkB on CHO-K1 cells (mouse) (UniProt P15209); assay: flow cytometry

Binder	binding [1]	binding [2]	binding [3]	binding [4]
anti-TrkB chicken-derived clone B4.2 (antibody, V domains shown) VH: AVTLDESGGGLQTPGGGLSLVCKASGFTFSSYTMQWVRQAPGKGLEWVAGICNDGTTTNYGSAVKGRATISRDNGQSTLRLQLNNLRAEDTGIYFCTRGVDICWNSGNNIDAWGHGTEVIVSS VL: QAALTQPASVSANPGETVKITCSGGGSYYGSYYYGWYQQKSPGSAPVTVIYNNDKRPSDIPSRFSGSLSGSTNTLTITGVQVEDESVYFCGSKDSSGAGIYGAGTTLTVL	binds	binds	binds	binds
anti-TrkB chicken-derived clone A12 (antibody, V domains shown) VH: AVTLDESGGGLQTPGGALSLVCKASGFTFSSFPMVWVRQAPGKGLEFVAGIVRTSTPKYGAAVTGRATISRDNGQSTVRLQLNNLRAEDTGTYFCAKSATICGNCPEDIDAWGHGTEVIVSS VL: QAALTQPASVSANPGETVKITCSGGSSDYGWFQQKSPGSAPVTVIYYSDKRPSDIPSRFSGSASGSMGALIITGVQAEDEAVYFCGSRDSSNVAIFGAGTTLTVL	binds	binds	binds	binds
anti-TrkB chicken-derived clone B5 (antibody, V domains shown) VH: AVTLDESGGGLQTPGGALSLVCKASGFTFSSFPMVWVRQAPGKGLEFVAGIVRTSTPKYGAAVTGRATISRDNGQSTVRLQLNNLRAEDTGTYFCAKSATICGNCPEDIDAWGHGTEVIVSS VL: QAALTQPASVSANPGETVKITCSGGSSDYGWFQQKSPGSAPVTVIYYSDKRPSDIPSRFSGSTSGSMGALIITGVQAEDEAVYFCGSRDSSNVAIFGAGTTLTVL	binds	binds	binds	binds
anti-TrkB chicken-derived clone B1.2 (antibody, V domains shown) VH: AVTLDESGGGLQTPGGGLSLVCKASGFTFSNHQMAWVRQAPGKGLEYVGLINAAGSWTYYGTAVKGRATISRDNGQSTVRLQLNNLRAEDTATYYCAKDVYGYCSTCGATIDTWGHGTEVIVSS VL: QAALTQPSSVSANPGETVKITCSGPTYDYGWFQQKSPGSAPVTVIYYNDNRPSDIPSRFSGSKSGSTATLTITGVQAEDEAVYYCGTYEDNNGASFGAGTTLTVL	binds	binds	binds	binds

Continued, values first:

binding [1]	binding [2]	binding [3]	binding [4]	Binder
binds	binds	binds	binds	anti-TrkB chicken-derived clone D5 (antibody, V domains shown) VH: AVTLDESGGGLQTPGGPLSLVCEGSGFTFSSYGMAWVRQAPGKRLEWVASISSTGINAYYGAAVKGRATISRDNGQSTVRLQLNNLRAEDTGIYYCSKCAYSGSCSTSIDAWGHGTEVIVSS VL: QAALTQPASVSANLGGTVEITCSGGSSGYGYGWYQQKSPGSAPVTVIYNNNNRPSDIPSRFSGSLSDSTHTLTITGVRAEDEAVYFCGAWESSATDIFGAGTTLTVL
binds	binds	binds	binds	anti-TrkB chicken-derived clone E2 (antibody, V domains shown) VH: AVTLDESGGGLQTPGGALSLVCKASGFDFSSNAMGWVRQAPGKGLEFIASITTDGSYTTYGAAVKGRATISRDDGQSTLRLQLNNLRAEDTATYYCAKDSSIHWNGYDIDAWGHGTEVIVSS VL: QAALTQPSSVSANPGETVKITCSGSINNYGWYQQKSPGSAPVTVIYQNDKRPSDIPSRFSGSKSGSTGTLTITGVQAEDEAVYFCGSEDSRTYLGIFGAGTTLTVL
binds	binds	binds	binds	anti-TrkB chicken-derived clone E4 (antibody, V domains shown) VH: AVTLDESGGGLQTPGGGLSLVCKASGFTFSSHAMFWVRQAPGKGLEYVAYINYDGITFYGAAVKGRATISRDNGQSTVRLQLNNLRAEDTATYFCAKTTCSGCWDAAALIDAWGHGTEVIVSS VL: QAALTQPASVSSNPGETVKITCSGGSSGYAYGWYQQKSPGSAPVTLIYSNDKRPSDIPSRFSGSKSGSTGTLTITGVQAEDEAVYYCGSFDSSSYIFGAGTTLTVL
binds	binds	binds	binds	anti-TrkB chicken-derived clone F1.3 (antibody, V domains shown) VH: AVTLDESGGGLQTPGGALSLVCKASGFTFSSFPMVWVRQAPGKGLEFVAGIVRTSTPKYGAAVTGRATISRDNGQSTVRLQLNNLRAEDTGTYFCAKSATICGNCPEDIDAWGHGTEVIVSS VL: QAALTQPASVSANPGETVKITCSGGSSDYGWFQQKSPGSAPVTVIYYSDKRPSDIPSRFSGSTSGSTNTLTITGVQVEDEAVYFCGSGDNSYVGFGAGTTLTVL
binds	binds	binds	binds	anti-TrkB chicken-derived clone B11 (antibody, V domains shown) VH: AVTLDESGGGLQTPGGALSLVCKASGFTFSSFNMFWVRQAPGKGLEFVAHIKRNGGETDYGAAVKGRATISRDDGQSTVRLQLNNLRAEDTATYFCAKDAGDNCRWNYCTTNIDAWGHGTEVIVSS VL: QAALTQPASVSANPGETVKITCSGGGRWYGTYYYGWYQQKSPGSAPVTVIYSNDKRPSDIPSRFSGSASGSTATLTITGVQADDEAVYYCGSWDSTDTTAFGAGTTLTVL
